PMC12375107 (Cell Death & Disease, 2025)
Results are given in words; binding and its absence hold for the method and conditions named. In cells and extracts the contact can be indirect. Binding can be weak; no strength is given. Tags and fused reporters may be left off the sequences shown.

Molecular target: T1, Flag-tagged CAD (caspase-activated DNase) (human) (UniProt O76075)
T1 sequence: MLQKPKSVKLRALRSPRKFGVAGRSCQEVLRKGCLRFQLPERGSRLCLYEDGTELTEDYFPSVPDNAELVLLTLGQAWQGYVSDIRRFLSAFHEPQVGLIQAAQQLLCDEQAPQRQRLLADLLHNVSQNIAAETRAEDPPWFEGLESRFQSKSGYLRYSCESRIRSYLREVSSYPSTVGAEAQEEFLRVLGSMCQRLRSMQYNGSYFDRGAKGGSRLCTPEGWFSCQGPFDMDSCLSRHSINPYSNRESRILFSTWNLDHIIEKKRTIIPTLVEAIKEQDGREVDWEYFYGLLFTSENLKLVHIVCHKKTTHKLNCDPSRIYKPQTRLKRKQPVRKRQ
Assay: co-IP; exogenous (transfected) proteins in lysates of HEK293T, HCT116 or HT29 cells; IP lysis buffer 25 mM HEPES, 150 mM NaCl, 1 mM EDTA, 1% NP-40, 10% glycerol, pH 7.4; antibody against Flag, MYC or HA, Protein A/G magnetic beads; western blotting

With ICAD-NTD (domain or fragment) the binding was “binds”.
